Results are given in words; binding and its absence hold for the method and conditions named. In cells and extracts the contact can be indirect. A yes stands for co-enrichment or nearness to the bait. Other partners may have been found.

The chains behind the UniProt entries cited, without tags or fusion partners.
UniProt O75030: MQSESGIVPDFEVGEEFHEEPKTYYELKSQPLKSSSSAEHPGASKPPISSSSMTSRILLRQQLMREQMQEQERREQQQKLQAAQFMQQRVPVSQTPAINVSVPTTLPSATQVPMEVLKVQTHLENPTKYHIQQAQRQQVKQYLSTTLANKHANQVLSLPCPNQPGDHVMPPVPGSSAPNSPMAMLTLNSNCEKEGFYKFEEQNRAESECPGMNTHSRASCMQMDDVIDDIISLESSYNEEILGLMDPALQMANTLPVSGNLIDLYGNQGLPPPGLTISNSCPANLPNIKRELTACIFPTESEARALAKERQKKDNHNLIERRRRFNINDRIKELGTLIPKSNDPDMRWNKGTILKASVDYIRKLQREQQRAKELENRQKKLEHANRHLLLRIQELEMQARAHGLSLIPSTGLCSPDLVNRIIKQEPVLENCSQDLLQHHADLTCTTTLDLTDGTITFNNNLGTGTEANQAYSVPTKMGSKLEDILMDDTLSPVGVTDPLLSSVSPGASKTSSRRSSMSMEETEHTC
UniProt P78317: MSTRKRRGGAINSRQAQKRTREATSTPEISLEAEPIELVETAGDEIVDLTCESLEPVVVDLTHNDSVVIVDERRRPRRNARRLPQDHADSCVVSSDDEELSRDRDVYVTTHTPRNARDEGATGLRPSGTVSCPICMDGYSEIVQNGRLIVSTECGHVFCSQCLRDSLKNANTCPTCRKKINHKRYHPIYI

The assay has as its target Flag-MITF (UniProt O75030). Put plainly: affinity purification with mass spectrometry; HEK293T transfected with Flag-tagged MITF and HA-vector or HA-METTL10, with the proteasome inhibitor MG132.

With “RNF4 (from UniProt P78317 1-190) (enzyme)”, the binding entry is listed as “binds”.

These data come from article PMC12752606, “METTL10‐Mediated PIAS3 Methylation Links Purine Metabolism to Gastric Cancer Progression” (Advanced Science, 2025).
